In patent US20160030629A1, “PEPTIDE-ALBUMIN HYDROGEL PROPERTIES AND ITS APPLICATIONS” (KANSAS STATE UNIVERSITY RESEARCH FOUNDATION, priority 2012, published 2016) one finds binding data, which are given here for one molecule.

By UniProt entry, the sequences of proteins in these tests, tags left out. Residues count along the entry.
UniProt P02768, residues 25-609: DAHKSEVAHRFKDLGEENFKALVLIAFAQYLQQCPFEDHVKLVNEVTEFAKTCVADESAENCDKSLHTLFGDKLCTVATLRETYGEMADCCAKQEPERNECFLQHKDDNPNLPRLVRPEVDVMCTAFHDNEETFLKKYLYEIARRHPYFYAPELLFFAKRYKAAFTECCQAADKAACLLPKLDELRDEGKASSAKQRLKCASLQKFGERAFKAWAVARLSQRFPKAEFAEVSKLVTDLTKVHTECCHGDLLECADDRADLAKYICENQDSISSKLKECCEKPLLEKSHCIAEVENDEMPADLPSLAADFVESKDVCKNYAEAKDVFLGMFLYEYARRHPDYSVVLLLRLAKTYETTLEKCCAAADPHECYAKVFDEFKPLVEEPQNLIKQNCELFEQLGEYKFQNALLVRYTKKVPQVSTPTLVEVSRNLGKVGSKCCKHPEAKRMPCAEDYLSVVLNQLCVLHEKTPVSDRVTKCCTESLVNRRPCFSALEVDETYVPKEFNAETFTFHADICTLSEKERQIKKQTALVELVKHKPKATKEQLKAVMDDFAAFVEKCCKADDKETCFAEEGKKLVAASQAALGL
UniProt P02769, residues 25-607: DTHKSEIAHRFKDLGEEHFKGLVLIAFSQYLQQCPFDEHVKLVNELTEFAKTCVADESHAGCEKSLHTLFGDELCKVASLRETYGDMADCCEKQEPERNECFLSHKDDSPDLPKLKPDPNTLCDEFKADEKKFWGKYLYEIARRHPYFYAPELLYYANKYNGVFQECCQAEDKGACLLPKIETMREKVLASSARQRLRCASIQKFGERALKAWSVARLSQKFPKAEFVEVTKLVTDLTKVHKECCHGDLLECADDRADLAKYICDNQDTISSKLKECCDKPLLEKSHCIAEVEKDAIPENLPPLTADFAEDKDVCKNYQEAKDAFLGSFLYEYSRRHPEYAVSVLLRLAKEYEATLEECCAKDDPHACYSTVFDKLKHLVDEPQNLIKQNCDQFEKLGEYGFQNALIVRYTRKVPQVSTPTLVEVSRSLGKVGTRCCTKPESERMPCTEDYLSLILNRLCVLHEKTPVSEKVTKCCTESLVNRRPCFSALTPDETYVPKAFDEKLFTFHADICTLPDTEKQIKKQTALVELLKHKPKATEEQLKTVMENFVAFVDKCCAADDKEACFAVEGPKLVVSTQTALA

These are yes or no findings as the source states them, for the method shown. Some binding calls cover weakened binding; strength is not graded here.

In test [1] the target is Human Serum Albumin (human) (UniProt P02768). In words: TEM (negative stain) of h9e/HSA mixture.
The target of test [2] is Bovine Serum Albumin (bovine) (UniProt P02769). The experiment in a line: TEM (negative stain) of h9e/BSA mixture.

On to FLIVIGSIIGPGGDGPGGD [h9e peptide], for which the binding entry in test [1] and in test [2] was “binds” each time.
